This is an account of results in patent US20220041718A1 (AUTOLUS, published 2022).

Positions count from the first letter of the chain named. Names may count otherwise. These are yes or no findings as the source states them, for the method shown. Some results given as binding are weak or reduced against the parent protein; the word gives no strength.

First the molecules themselves.
B1: hJovi-1 variant IgG, VH T28K, Y32F, A100N; VL unmutated (antibody, V domains shown)
VH: QVQLVQSGAEVKKPGASVKVSCKASGYKFTGFVMHWVRQAPGQGLEWMGFINPYNDDIQSNERFRGRVTMTRDTSISTAYMELSRLRSDDTAVYYCARGNGYNFDGAYRFFDFWGQGTMVTVSS
VL: DIVMTQSPLSLPVTPGEPASISCRSSQRLVHSNGNTYLHWYLQKPGQSPRLLIYRVSNRFPGVPDRFSGSGSGTDFTLKISRVEAEDVGVYYCSQSTHVPYTFGQGTKLEIK
notes: IgG format; also called anti-TRBC2 triple mutant
B2: hJovi-1 variant IgG, VH N103L, T28K, Y32F, A100N; VL N35K (antibody, V domains shown)
VH: B1 VH with N103L
VL: B1 VL with N35K
notes: IgG format
B3: hJovi-1 variant IgG, VH N103F, T28K, Y32F, A100N; VL N35Y (antibody, V domains shown)
VH: B1 VH with N103F
VL: B1 VL with N35Y
notes: IgG format
B4: hJovi-1 variant IgG, VH G31S, T28K, Y32F, A100N; VL unmutated (antibody, V domains shown)
VH: B1 VH with G31S
VL: B1 VL
notes: IgG format
B5: hJovi-1 variant IgG, VH N103S, T28K, Y32F, A100N; VL N35M (antibody, V domains shown)
VH: B1 VH with N103S
VL: B1 VL with N35M
notes: IgG format
B6: hJovi-1 variant IgG, VH N103L, T28K, Y32F, A100N; VL N35M (antibody, V domains shown)
VH: B1 VH with N103L
VL: B1 VL with N35M
notes: IgG format
B7: hJovi-1 variant IgG, VH N103M, T28K, Y32F, A100N; VL N35F (antibody, V domains shown)
VH: B1 VH with N103M
VL: B1 VL with N35F
notes: IgG format
B8: hJovi-1 variant IgG, VH G31R, Y32F, A100N; VL unmutated (antibody, V domains shown)
VH: B1 VH with K28T, G31R
VL: B1 VL
notes: IgG format
B9: hJovi-1 variant IgG, VH N103S, T28K, Y32F, A100N; VL N35K (antibody, V domains shown)
VH: B1 VH with N103S
VL: B1 VL with N35K
notes: IgG format
B10: hJovi-1 variant IgG, VH N103L, T28K, Y32F, A100N; VL N35F (antibody, V domains shown)
VH: B1 VH with N103L
VL: B1 VL with N35F
notes: IgG format
B11: hJovi-1 variant IgG, VH N103L, T28K, Y32F, A100N; VL N35Y (antibody, V domains shown)
VH: B1 VH with N103L
VL: B1 VL with N35Y
notes: IgG format
B12: hJovi-1 variant IgG, VH N103E, T28K, Y32F, A100N; VL N35M (antibody, V domains shown)
VH: B1 VH with N103E
VL: B1 VL with N35M
notes: IgG format
B13: hJovi-1 variant IgG, VH N103S, T28K, Y32F, A100N; VL N35R (antibody, V domains shown)
VH: B1 VH with N103S
VL: B1 VL with N35R
notes: IgG format
B14: hJovi-1 variant IgG, VH N103L, T28K, Y32F, A100N; VL N35R (antibody, V domains shown)
VH: B1 VH with N103L
VL: B1 VL with N35R
notes: IgG format
B15: hJovi-1 variant IgG, VH N103F, T28K, Y32F, A100N; VL N35M (antibody, V domains shown)
VH: B1 VH with N103F
VL: B1 VL with N35M
notes: IgG format
B16: hJovi-1 variant IgG, VH N103F, T28K, Y32F, A100N; VL N35F (antibody, V domains shown)
VH: B1 VH with N103F
VL: B1 VL with N35F
notes: IgG format
B17: hJovi-1 variant IgG, VH N103S, T28K, Y32F, A100N; VL N35F (antibody, V domains shown)
VH: B1 VH with N103S
VL: B1 VL with N35F
notes: IgG format

The experiment concerns the target Recombinant purified TRBC2 (human). The experiment can be described thus: SPR.
For B1, the binding result is listed as “binds”. As for B2, the binding entry is listed as “binds”. Take B3: the binding entry is given as “binds”. Take B4: the binding result was “binds”. Consider B5, for which the binding result was “binds”. As for B6, the binding entry is “binds”. For B7 the value was “binds”. Consider B8, for which the binding result is on record as “binds”. As to B9, the binding result is reported as “binds”.

In the case of B10, the binding entry is “binds”. Under B11 stands “binds”.

B12: the binding result is recorded as “binds”.

On to B13, for which the binding result was “binds”. As to B14, the binding result is given as “binds”.

As to B15, the binding result was “binds”. Turning to B16, the binding entry was “binds”. For B17, the binding result is listed as “binds”.
